# Laboratory results published in patent EP3845551A1.
# Results are given in words; binding and its absence hold for the method and conditions named. Some entries that bind do so weakly or less than the wild type.
# Target: T1, ATF3 (activating transcription factor 3) protein (UniProt P18847)
# T1 sequence (looked up): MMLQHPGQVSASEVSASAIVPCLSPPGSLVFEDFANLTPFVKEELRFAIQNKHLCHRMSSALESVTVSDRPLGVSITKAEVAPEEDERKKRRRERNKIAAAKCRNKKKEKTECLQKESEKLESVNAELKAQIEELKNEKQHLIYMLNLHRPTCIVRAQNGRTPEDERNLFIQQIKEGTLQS
# Test: avidin-biotin complex binding assay; ATF3 coated on plate, biotinylated peptide 10-100 uM, ExtrAvidin-peroxidase, absorbance 405 nm
binder,measurement,value
"AESPLTNRGWNP (biotin-labeled with EZ-link sulfo-NHS-biotin (site not stated)) [ABP1 peptide (SEQ ID NO: 1), biotin-labeled]",binding,binds
"MLDTNIQSRPNL (biotin-labeled with EZ-link sulfo-NHS-biotin (site not stated)) [ABP2 peptide (SEQ ID NO: 2), biotin-labeled]",binding,binds
"TLGLRPVPVATT (biotin-labeled with EZ-link sulfo-NHS-biotin (site not stated)) [ABP3 peptide (SEQ ID NO: 3), biotin-labeled]",binding,binds
"VLNIPEHFTAQN (biotin-labeled with EZ-link sulfo-NHS-biotin (site not stated)) [ABP4 peptide (SEQ ID NO: 4), biotin-labeled]",binding,binds
